Experimental data reported in PMC5561223.

System: H6-YebC (Lactobacillus delbrueckii subsp. lactis CRL 581)
Experiment: EMSA
Conditions: 25 mM Tris-HCl pH 8, 50 mM KCl, 0.5 mM EDTA, 0.01% BSA, 1 ug poly(dI-dC), 10% glycerol, 50 ng DNA in 20 ul, 30 C 30 min, 6% PAGE in TAE, recombinant protein, protein details: N-terminal His6 (pRSETA), label: none (ethidium bromide stain)

## AGCTGAGTCAGAGCATGCCGGGGAAATCTGGTACAACATGATCAAAGAGATAGAAGGTTAGAAAGCGGTCAGCAGGTGCTGGCTGCTTTTTCTTTTGCTTTATAAGTTAAACATTTTAATGTAAATCTAACTTAAAAAACTATAGCTAAAATTTGTCAATATTCTTTTCTTAAATGAAAAAGCTGATAGAACTATGTTTAAATAGGGACGGTGTTATTATAATCAAAAAGGTAACACTATACCACGACTTTAGCGAATCAACTTTAAGTTAGTATTTTGTAGATTTTTAACTTCATAGCACGTTATTTTCTCGCGTATTGCTGAAATAATGTGTTTTTTGTTTTTTGGCGTTCAGAAGTTACTTTTCCACTGTTTGATTTAAAATTCTGCTAAAAAACACTTAACTTTAATTTAAACTATGGTATGATTATGAAATGTTAGTGAGCTAAAGCTGTGTGATGAAAGGCTTGC (double strand) [PprtL]
1.6 uM YebC, 5 mM each Leu, Val, Ile
  binding result: binds
1.6 uM YebC, 10 mM Ile
  binding result: binds
1.6 uM YebC, 10 mM Leu
  binding result: binds
1.6 uM YebC, 10 mM Val
  binding result: binds
1.6 uM YebC, 10 mM each Leu, Val, Ile
  binding result: binds
Shift at 1.6 uM YebC (0-1.6 uM titrated)
  binding result: binds

## ACTTGGAACTTCAAGGACACTTACATCAAGTAATCAAGCAAAAAGAAGAGGCTCAGCCTCTTCTTTTTTGTGCTATAAGTATTTTTAGATTGACTTGTATCTGTTTTTGGATATTTAGATTGTTGAAATAAAATAGCACTTTTTCTTAAAAATACTTGAAGAAGCATAAACGAAGAACTATAATGAAAATATCATTAAAGGCTGCTGTAGAGCTTTAATTTGTGTAGGCGCTGGAACAGTCAGTAAAAGCAAGGAGAAAAAGATGAAATTATCTAAGACTTTAAGCCTGGGAGCCAC (double strand) [PoptS]
1.6 uM YebC
  binding result: binds

## GAGCATCAACTATGTCGGCCAGGCCCTGCAAAAGGCTGGCGACGCCCGGCAAAGAGAAAACTAAAAACAATTAGCATTAAATTAAAATTATCATTGACTTTTAAAATTAAACTGCTAAAATAAAAAGCATGAAAGATAAAATTTGTGAATCGCTATCTCGATAACTATTCATATGCTGTGTGTTTTATCTTTTGAATATATTGTGTGGAGGTAAATTAAATTATGAAGAGAAGAATGCTCGGAACATTTGGAGTACTTCTGGCCGGGGCAGCTTTGCTGGCCGGTTGCGGCAAGAGCAGCTCCAGCTCCAGCAACAGCGGGGCTAAGGATC (double strand) [PoppA1]
1.6 uM YebC
  binding result: binds

## AGAGTGATTGATATCGCGGCAACTAAATACCGCCGCTAAAGCTGCCGGAAGGCGGCTTTTTTGCTTGGCGTCTTGTTTGCCAGGGCTGGCGAAGATTGATAGAATTTTATTTAGGTGGTTAGTTGCTTTTTGTAACTAATTTCAAAAAACAGCAGGCATTGAAAATAAACATTAGGAGAAAAAGATGGACTTAAACTTTAAAGAACTGGCGGAAGCCAA (double strand) [PpepV]
1.6 uM YebC
  binding result: no binding

## GCAAAAGGACCAGCTCCGAAAAAGAGCCGGTCCTTTTTTCAACCGGTATAATCTAGCTATCCCCTATTTTGTATGTAAAAATCTTTCTCATTTTCCGATAATTTCTTGCCCAGCTCCTTCTTAATAAAGTAGTTTCTCTTTTCGTATAGGATTTTAATTTAACGGTGAGAGGCTTATGATTTCTTTTGGCAAGCGCTAACAAGCACTCCTGTGTGATTGATAGGATTATATTTGATAGGGGGAAATATCATGCGTAAGTTTAT (double strand) [PpepD]
1.6 uM YebC
  binding result: no binding

The exact form of at least one protein or probe is not confirmed. No signal at the amounts used counts as a negative.
